Laboratory results taken from PMC8458504, “Targeting the actin nucleation promoting factor WASp provides a therapeutic approach for hematopoietic malignancies” (Nature Communications, 2021).
These are yes or no findings as the source states them, for the method shown. In cells and extracts the contact can be indirect.

Chains of the proteins cited; added tags and fusions are not shown.
UniProt P42768: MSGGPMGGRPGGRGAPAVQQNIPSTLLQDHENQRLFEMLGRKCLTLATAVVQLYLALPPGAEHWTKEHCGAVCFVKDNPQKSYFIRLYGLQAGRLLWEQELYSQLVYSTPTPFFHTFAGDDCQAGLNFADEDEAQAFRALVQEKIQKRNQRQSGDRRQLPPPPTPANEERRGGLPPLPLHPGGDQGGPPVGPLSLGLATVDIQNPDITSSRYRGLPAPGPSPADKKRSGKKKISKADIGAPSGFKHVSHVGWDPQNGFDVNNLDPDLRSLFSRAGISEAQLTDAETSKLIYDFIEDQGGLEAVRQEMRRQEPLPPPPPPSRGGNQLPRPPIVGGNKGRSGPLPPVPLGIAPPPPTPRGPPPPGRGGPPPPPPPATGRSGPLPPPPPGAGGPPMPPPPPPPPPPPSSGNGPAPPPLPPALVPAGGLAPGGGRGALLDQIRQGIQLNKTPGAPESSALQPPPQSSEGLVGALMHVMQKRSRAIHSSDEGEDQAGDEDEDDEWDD
UniProt O43516: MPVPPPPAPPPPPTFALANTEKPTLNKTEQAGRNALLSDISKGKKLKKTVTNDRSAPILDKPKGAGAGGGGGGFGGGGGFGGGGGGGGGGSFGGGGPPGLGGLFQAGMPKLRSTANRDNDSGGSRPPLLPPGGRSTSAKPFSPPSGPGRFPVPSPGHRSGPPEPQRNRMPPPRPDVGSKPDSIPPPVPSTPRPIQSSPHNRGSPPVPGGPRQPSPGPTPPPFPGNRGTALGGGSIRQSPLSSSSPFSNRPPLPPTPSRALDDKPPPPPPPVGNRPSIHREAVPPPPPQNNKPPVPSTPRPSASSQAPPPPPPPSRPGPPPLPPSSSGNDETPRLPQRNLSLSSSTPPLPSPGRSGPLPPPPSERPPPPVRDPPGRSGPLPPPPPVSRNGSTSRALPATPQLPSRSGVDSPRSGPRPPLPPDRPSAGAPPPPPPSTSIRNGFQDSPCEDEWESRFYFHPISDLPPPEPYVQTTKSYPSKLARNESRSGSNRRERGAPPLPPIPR

Target: CFP-WASp (Wiskott–Aldrich Syndrome protein) (human) (UniProt P42768)
Experiment: FRET or BRET; Jurkat cells expressing CFP-WASp and YFP-WIP, incubated with 40 μM SMC #13, stimulated 2 min on anti-CD3-coated coverslips, fixed; donor-sensitized acceptor emission, confocal microscopy

Substance: YFP-WIP (WASp-interacting protein) (from UniProt O43516 1-503)
- binding: no binding (condition: cells incubated with 40 μM SMC #13)
